{"source": "PubChem BioAssay AID1259308 (NCATS, 2017)", "assay": "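Candidate targets for better recombinant protein yield in mammalian cells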 (primary screen)", "cell system": "human HEK293 embryonic kidney cells stably expressing firefly luciferase (HEK-CMV-Luc2-Hygro)", "knock-down reagent": "single siRNA against human genes, 0.8 pmol siRNA per well", "timing": "72 h", "measurement": "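Reporter luminescence and viable-cell signal on separate replicate plates, given as percent of non-targeting control and median/MAD z-scores, plus per-cell luciferase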", "reading the numbers": "total luciferase, z-score and total luciferase, % of control: higher = more reporter protein produced", "hit rule": "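An siRNA counts as active if its total luciferase robust z-score exceeds 3; genes with two or more such siRNAs out of three were retested with fresh siRNAs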", "calls": "active = raised luciferase; inactive = no rise", "note": "The whole screen tested about 59,000 reagents; below is a part drawn at random. Over the whole deposit, about 1,510 (2.6%) were called active. 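Calls use total luciferase alone and ignore viability, so some active siRNAs may act by altering cell number.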 The numbers tell different reagents against one gene apart. Further read-outs or replicates are left out here."}
{"gene": "ABITRAM", "siRNA no.": 1, "total luciferase, z-score": -1.12, "total luciferase, % of control": 59.7, "outcome": "inactive"}
{"gene": "ABITRAM", "siRNA no.": 2, "total luciferase, z-score": 0.351, "total luciferase, % of control": 88.9, "outcome": "inactive"}
{"gene": "ABITRAM", "siRNA no.": 3, "total luciferase, z-score": 1.27, "total luciferase, % of control": 107, "outcome": "inactive"}
{"gene": "CTSC", "siRNA no.": 1, "total luciferase, z-score": -0.656, "total luciferase, % of control": 68.8, "outcome": "inactive"}
{"gene": "CTSC", "siRNA no.": 2, "total luciferase, z-score": -0.783, "total luciferase, % of control": 66.3, "outcome": "inactive"}
{"gene": "CTSC", "siRNA no.": 3, "total luciferase, z-score": -0.329, "total luciferase, % of control": 75.3, "outcome": "inactive"}
{"gene": "WFDC5", "siRNA no.": 1, "total luciferase, z-score": 1.58, "total luciferase, % of control": 113, "outcome": "inactive"}
{"gene": "WFDC5", "siRNA no.": 2, "total luciferase, z-score": 0.99, "total luciferase, % of control": 102, "outcome": "inactive"}
{"gene": "WFDC5", "siRNA no.": 3, "total luciferase, z-score": 0.142, "total luciferase, % of control": 84.7, "outcome": "inactive"}
{"gene": "MTARC2", "siRNA no.": 1, "total luciferase, z-score": 1.49, "total luciferase, % of control": 111, "outcome": "inactive"}
{"gene": "MTARC2", "siRNA no.": 2, "total luciferase, z-score": -0.263, "total luciferase, % of control": 76.7, "outcome": "inactive"}
{"gene": "MTARC2", "siRNA no.": 3, "total luciferase, z-score": 0.609, "total luciferase, % of control": 94, "outcome": "inactive"}
{"gene": "TMUB1", "siRNA no.": 1, "total luciferase, z-score": -2.78, "total luciferase, % of control": 26.7, "outcome": "inactive"}
{"gene": "TMUB1", "siRNA no.": 2, "total luciferase, z-score": 0.968, "total luciferase, % of control": 101, "outcome": "inactive"}
{"gene": "TMUB1", "siRNA no.": 3, "total luciferase, z-score": -2.65, "total luciferase, % of control": 29.3, "outcome": "inactive"}
{"gene": "MVB12B", "siRNA no.": 1, "total luciferase, z-score": 0.217, "total luciferase, % of control": 86.2, "outcome": "inactive"}
{"gene": "MVB12B", "siRNA no.": 2, "total luciferase, z-score": 0.664, "total luciferase, % of control": 95.1, "outcome": "inactive"}
{"gene": "MVB12B", "siRNA no.": 3, "total luciferase, z-score": 1.89, "total luciferase, % of control": 119, "outcome": "inactive"}
{"gene": "SSX2IPP1", "siRNA no.": 1, "total luciferase, z-score": 0.784, "total luciferase, % of control": 97.5, "outcome": "inactive"}
{"gene": "SSX2IPP1", "siRNA no.": 2, "total luciferase, z-score": 2.03, "total luciferase, % of control": 122, "outcome": "inactive"}
{"gene": "SSX2IPP1", "siRNA no.": 3, "total luciferase, z-score": 1.65, "total luciferase, % of control": 115, "outcome": "inactive"}
{"gene": "USP33", "siRNA no.": 1, "total luciferase, z-score": -0.188, "total luciferase, % of control": 78.2, "outcome": "inactive"}
{"gene": "USP33", "siRNA no.": 2, "total luciferase, z-score": -2.38, "total luciferase, % of control": 34.6, "outcome": "inactive"}
{"gene": "USP33", "siRNA no.": 3, "total luciferase, z-score": -1.8, "total luciferase, % of control": 46.2, "outcome": "inactive"}
{"gene": "FOXK2", "siRNA no.": 1, "total luciferase, z-score": -0.447, "total luciferase, % of control": 73, "outcome": "inactive"}
{"gene": "FOXK2", "siRNA no.": 2, "total luciferase, z-score": -1.12, "total luciferase, % of control": 59.5, "outcome": "inactive"}
{"gene": "FOXK2", "siRNA no.": 3, "total luciferase, z-score": -1.85, "total luciferase, % of control": 45, "outcome": "inactive"}
{"gene": "ZNF514", "siRNA no.": 1, "total luciferase, z-score": -0.443, "total luciferase, % of control": 73.1, "outcome": "inactive"}
{"gene": "ZNF514", "siRNA no.": 2, "total luciferase, z-score": 1.65, "total luciferase, % of control": 115, "outcome": "inactive"}
{"gene": "ZNF514", "siRNA no.": 3, "total luciferase, z-score": -1.12, "total luciferase, % of control": 59.7, "outcome": "inactive"}
{"gene": "THRAP3P1", "siRNA no.": 1, "total luciferase, z-score": -0.905, "total luciferase, % of control": 63.9, "outcome": "inactive"}
{"gene": "THRAP3P1", "siRNA no.": 2, "total luciferase, z-score": 0.681, "total luciferase, % of control": 95.4, "outcome": "inactive"}
{"gene": "THRAP3P1", "siRNA no.": 3, "total luciferase, z-score": 0.927, "total luciferase, % of control": 100, "outcome": "inactive"}

Part of the list above, set out differently.
{"gene":"FOXK2","siRNA no.":2,"total luciferase, z-score":-1.12,"total luciferase, % of control":59.5,"outcome":"inactive"}
{"gene":"FOXK2","siRNA no.":3,"total luciferase, z-score":-1.85,"total luciferase, % of control":45,"outcome":"inactive"}
